Measured values taken from patent publication US11253015B2, “Methods and devices for preventing viral transmission” (priority 2020, dated 2022).
For at least one compound, name, drawing or mass did not settle the structure.

Tests used:
HUVEC cells [1] = assay: EF-induced reorientation of endothelial cells (orientation index Oi); type: cell-based, human; conditions: inhibitor 50 μM, 1 hour before and during EF
HUVEC cells [2] = assay: EF-induced elongation of endothelial cells (long:short axis ratio); type: cell-based, human; conditions: inhibitor present during EF
Description: HUVEC cells were seeded in a trough formed by two parallel (1 cm apart) strips of glass coverslip (No. 1, length of 22 mm) fixed to the base of the dish with silicone grease. Scratch lines were made perpendicular to the long axis of the chamber with a fine sterile needle and used as reference marks for directed cell migration. Cells were incubated for 24-48 hours (37° C., 5% CO2) before a roof coverslip was applied and sealed with silicone grease. The final dimensions of the chamber, through which current was passed, were 22×10×0.2 mm. […] Field strengths were measured directly at the beginning of, the end of and during each experiment. […]
A series of images was taken with an image analyser immediately before EF exposure and at 4, 8 and 24 hours of EF exposure. Cell orientation was quantified as an orientation index (Oi), which is defined as Oi=cos 2(α), where a is the angle formed by the long axis of a cell with a line drawn perpendicular to the field lines. […] The significance of this two-dimensional orientation distribution against randomness was calculated using Rayleigh's distribution. A long:short axis ratio was calculated for assessment of elongation.
HUVEC cells elongated dramatically in an EF. […] We quantified the elongation of the cells using a long:short axis ratio. […]

Structure (SMILES): O=c1cc(N2CCOCC2)oc2c(-c3ccccc3)cccc12 [LY294002]
- orientation response (HUVEC cells [1]): significantly decreased the orientation response
- long:short axis ratio in EF-treated cells (HUVEC cells [2]): significantly decreased the long:short axis ratio
